Experimental data from patent US7589099B2 (priority 2004, dated 2009).

Experiment: general procedure: Fmoc solid-phase peptide synthesis; Fmoc-Gly-Sasrin; HOBT, TBTU, DIEA
Settings: whole synthesis, scale 0.69 mmol, TFA (protected cyclopeptides); hydrochlorides (final conjugates)

Substance: c(Arg(Pmc)-Gly-Asp(OtBu)-D-Phe-Aad)
- isolated mass: 187 mg
